The whole screen tested about 300,000 compounds, of which about 3,700 (1.2%) were called active. The inconclusive results got no clear call from the source; some entries with a clear call stand among them for comparison. The call rests on the fitted dose curve; tested in HEK293 cells. A potency beside an inconclusive call is a rough fit, not a confirmed value.
assay: qHTS for Inhibitors of binding or entry into cells for Lassa Virus; settings: Lassa virus pseudotype entry inhibition, cell reporter; activity change, negative = inhibition: at 37.9 µM (top of the series) unless noted; further: nearly all actives have a fitted effect of over 50% in size
On the % scale 0 is the no-effect control and ±100 the full control effect; potency means the concentration at half of the fitted maximal effect.

Row | Compound | Potency | activity change, negative = inhibition
1 | CCN(CC)S(=O)(=O)c1ccc2c(c1)nc(SCC(=O)N1CCCCCC1)n2-c1ccc(OC)cc1 | inconclusive: 13 µM [inhibitor, partial curve, poor fit] | –
2 | CCOC(=O)c1ccccc1NC(=O)Cc1c(C(=O)O)c(C)cn1C | inconclusive: 6.31 µM [activator, partial curve, poor fit] | –
3 | COc1ccc(NC(=O)CSc2ccccc2)cn1 | inconclusive: 17.8 µM [activator, single point] | –
4 | COc1ccccc1N1CCN(C(=O)C2c3ccccc3Oc3ccccc32)CC1 | inconclusive: 5.62 µM [inhibitor, partial curve, poor fit] | –
5 | O=C(CCc1ccccc1)Nc1nc2n(n1)C(c1ccccc1)CC(=O)N2 (stereo not drawn) | – | inactive: -6.17%
6 | COc1ccc(C2NC3=C(CCC3)C3(C#N)C4(N=C(N)C23C#N)OCCO4)cc1 (stereo not drawn) | – | inactive: 0.886%
7 | O=C(c1c(Cl)nc2sccn12)N1CCN(c2cccc(Cl)c2)CC1 | inconclusive: 1.26 µM [inhibitor, partial curve, poor fit] | –
8 | CCn1c(SCc2ccccc2Cl)nc2nc3c(cc2c1=O)CCCC3 | inconclusive: 15.8 µM [inhibitor, single point] | –
9 | CCOC(=O)c1c(-c2ccccc2)oc2ccc(NS(=O)(=O)c3ccccc3)cc12 | inconclusive: 14.1 µM [inhibitor, single point] | –
10 | O=[N+]([O-])c1ccc(NC(=S)N2CCN(c3ccc(F)cc3)CC2)cc1 | inconclusive: 15.8 µM [inhibitor, single point] | –
11 | CC1(C)CCCN(C(=O)N2c3ccccc3Sc3ccccc32)C1 | inconclusive: 35.5 µM [inhibitor, single point] | –
12 | CCCn1c(CCC(=O)Nc2ccccc2Cc2ccccc2)nc2cc(S(=O)(=O)N3CCOCC3)ccc21 | inconclusive: 14.1 µM [inhibitor, single point] | –
13 | O=[N+]([O-])c1ccccc1/C=N\Nc1nccs1 | inconclusive: 3.16 µM [activator, partial curve, poor fit] | –
14 | CCOc1ccc(NC(=O)CN(C)CC(=O)Nc2ccccc2SC)cc1OCC | inconclusive: 5.01 µM [activator, full curve, poor fit] | –
15 | Cc1nccc(-c2cc(-c3ccc(Cl)cc3Cl)no2)n1 | inconclusive: 1.12 µM [inhibitor, single point] | –
16 | CCCCN1CCc2c([nH]c3c(C)cccc23)C1=O | – | inactive: -13.6%
17 | CN(Cc1ccccn1)Cc1nc(Cc2ccccc2Cl)no1 | inconclusive: 35.5 µM [inhibitor, single point] | –
18 | CN(Cc1ccccc1)C(=O)CCNS(=O)(=O)c1ccc2c(c1)oc(=O)n2C | – | inactive: -9.58%
19 | O=C(Cn1nnc(-c2ccccc2NC(=O)c2ccco2)n1)Nc1ccccc1 | inconclusive: 35.5 µM [inhibitor, single point] | –
20 | COCC(C)N1CCC(n2nccc2NC(=O)c2ccc3c(c2)OCO3)CC1 (stereo not drawn) | – | inactive: 4.77%
21 | COc1ccccc1NS(=O)(=O)c1cccc(NC(=O)c2cncc(Br)c2)c1 | inconclusive: 0.316 µM [inhibitor, full curve, poor fit] | –
22 | CN(Cc1ccccc1F)c1ncnc2sccc12 | inconclusive: 0.562 µM [inhibitor, full curve, poor fit] | –
23 | COc1cccc(Oc2ccc(S(=O)(=O)N3CCOCC3)cc2[N+](=O)[O-])c1 | inconclusive: 17.8 µM [inhibitor, single point] | –

Taken from above:
Entry for CCOC(=O)c1ccccc1NC(=O)Cc1c(C(=O)O)c(C)cn1C under Potency: inconclusive: 6.31 µM [activator, partial curve, poor fit]
Entry for COc1ccc(NC(=O)CSc2ccccc2)cn1 under Potency: inconclusive: 17.8 µM [activator, single point]

(next part)

Row | Compound | Potency | activity change, negative = inhibition
24 | CCOc1ccc(C2(C)NC(=O)N(CCN(C)C)C2=O)cc1 (stereo not drawn) | – | inactive: 6.99% [at 46.1 µM]
25 | CCC(=O)Nc1cccc(NC(=O)c2ccc(Br)cc2)c1 | – | inactive: 2.13%
26 | Cc1c(C(=O)NC(=S)Nc2ccc3c4c(cccc24)CC3)cccc1[N+](=O)[O-] | inconclusive: 17.8 µM [inhibitor, single point] | –
27 | Cc1ccc(C(=O)c2cc([N+](=O)[O-])ccc2N2CCOCC2)cc1 | inconclusive: 2.51 µM [inhibitor, partial curve] | –
28 | CCC(OC(=O)c1ccco1)C(=O)NCc1ccc(OC)cc1 (stereo not drawn) | – | inactive: -19.4% [at 46.1 µM]
29 | COc1ccc(C(=O)NC(=O)COC(=O)c2ccc3ncsc3c2)cc1 | – | inactive: 0.866%
30 | CC1Oc2ccccc2N(CC(=O)N2CCCc3ccccc32)C1=O (stereo not drawn) | inconclusive: 16.4 µM [inhibitor, partial curve, poor fit] | –
31 | Fc1ccc(C(c2nnnn2C2CCCC2)N(Cc2ccco2)CC2CCCO2)cc1 (stereo not drawn) | inconclusive: 35.5 µM [inhibitor, single point] | –
32 | Cc1ccccc1C(=O)Nc1nc2c(s1)CC(C(C)(C)C)CC2 (stereo not drawn) | inconclusive: 8.91 µM [activator, single point] | –
33 | O=[N+]([O-])c1ccc(/C=N/N2CCN(c3ccncc3S(=O)(=O)N3CCCCC3)CC2)cc1 | – | inactive: 5.27%
34 | O=C(Nc1ccn(Cc2c(F)c(F)cc(F)c2F)n1)c1cccc(Cn2cc([N+](=O)[O-])cn2)c1 | – | inactive: -19.8%
35 | O=C(Nc1ccc(Br)cc1)c1ccc(Br)c(S(=O)(=O)NCc2ccccc2)c1 | inconclusive: 20 µM [inhibitor, partial curve, poor fit] | –
36 | O=c1ccc(/C=C/c2ccccc2)nn1Cc1ccc(F)cc1 | inconclusive: 28.2 µM [inhibitor, partial curve, poor fit] | –
37 | O=C(CSc1nccc(=O)[nH]1)Nc1cc(C(F)(F)F)ccc1N1CCOCC1 | – | inactive: 2.5%
38 | CCc1noc(C)c1C(=O)OCC(=O)Nc1nc(-c2ccc(F)c(F)c2)cs1 | inconclusive: 35.5 µM [inhibitor, single point] | –
39 | c1csc(-c2nc3ccccc3s2)c1 | inconclusive: 6.31 µM [activator, single point] | –
40 | C/C(CC(=O)Nc1ccc2c(c1)OCCO2)=N\NC(=O)Cc1ccc(Cl)cc1 | inconclusive: 1 µM [activator, partial curve, poor fit] | –
41 | COc1cccc2cc(-c3nc(-c4cccs4)no3)c(=O)oc12 | – | inactive: 16.6% [at 46.1 µM]
42 | Cc1cc(NC(=O)c2nn3cccnc3c2Cl)no1 | inconclusive: 29.1 µM [inhibitor, single point] | –
43 | COc1cc(NC(=O)CCc2c(C)nc3c(c(C)nn3-c3ccccc3)c2C)cc(OC)c1OC | – | inactive: -10.7% [at 46.1 µM]
44 | CN1C(=O)C2CCCCN2c2ccc(C(=O)NCc3ccccc3Br)cc21 (stereo not drawn) | inconclusive: 3.55 µM [inhibitor, full curve, poor fit] | –
45 | c1ccc2c(c1)Cn1c-2nc2ccccc21 | inconclusive: 0.517 µM [activator, partial curve, poor fit] | –
46 | O=C(CCS(=O)(=O)c1cccc2nonc12)N1CCOCC1 | – | inactive: 10.8%

Row | Compound | Potency | activity change, negative = inhibition
47 | CCOc1ccc(S(=O)(=O)N2CCC(C(=O)NCc3ccco3)CC2)cc1C | – | inactive: -17.1%
48 | CCC(C)OC(=O)C[N+](C)(C)CCOC1CC2CCC1(C)C2(C)C (stereo not drawn) | inconclusive: 10 µM [inhibitor, partial curve, poor fit] | –
49 | Cc1ccc(NC(=O)COc2ccc(CCO)cc2-n2nc3ccccc3n2)cc1C | inconclusive: 35.5 µM [inhibitor, single point] | –
50 | Cc1onc(-c2c(Cl)cccc2Cl)c1C(=O)Nc1nc(C(C)(C)C)cs1 | inconclusive: 12.6 µM [inhibitor, partial curve, poor fit] | –
51 | O=C(Nc1ccc(S(=O)(=O)NCc2ccco2)cc1)c1ccc2ccccc2n1 | – | inactive: 2.01%
52 | COc1ccc(-c2cc(C(F)(F)F)nc(NCc3ccco3)n2)cc1OC | – | inactive: 2.66%
53 | COc1ccc(NC(=O)CN(C)CC(=O)Nc2cccc3ccccc23)c(OC)c1 | – | inactive: 1.1%
54 | CN(C(=O)c1cccc(Nc2ccc(-c3ccc4c(c3)OCCO4)nn2)c1)C1CCCCC1 | active: 14.1 µM | –
55 | CCN(CC)c1ccc(CN(C)CCc2ccc(OC)c(OC)c2)cc1 | inconclusive: 29.1 µM [inhibitor, single point] | –
56 | Cc1nonc1C(=O)N/N=C/c1ccc(O)cc1O | inconclusive: 12.6 µM [inhibitor, partial curve, poor fit] | –
57 | COc1ccc(N(CC(=O)NCc2ccc(C)cc2)S(=O)(=O)c2c(C)nn(C)c2C)cc1 | inconclusive: 20.6 µM [inhibitor, single point] | –
58 | Cc1cc(NC(=O)CCC(=O)N(CC(=O)NCC2CCCO2)c2ccccc2)no1 (stereo not drawn) | – | inactive: 14%
59 | Cc1ccc(NC(=O)C2CCN(c3nc4ccccc4[nH]3)CC2)cc1Cl | – | inactive: -18.9% [at 46.1 µM]
60 | COCCN(CCOC)S(=O)(=O)c1ccc(C(=O)Nc2nc(-c3ccncc3)cs2)cc1 | inconclusive: 29.1 µM [inhibitor, single point] | –
61 | CC1CCN(S(=O)(=O)c2csc(C(=O)Nc3ccccc3)c2)CC1 | inconclusive: 11.6 µM [inhibitor, partial curve] | –
62 | Cc1c(Cl)cccc1NC(=S)NCCc1ccc(C(F)(F)F)cc1 | inconclusive: 35.5 µM [inhibitor, partial curve, poor fit] | –
63 | CCCCn1c(O)c(C(CC)=Nc2ccc(OC)cc2OC)c(=O)[nH]c1=O | inconclusive: 14.6 µM [inhibitor, partial curve] | –
64 | Cc1ccc(C(=O)Nc2ccc3c(c2)N(C)C(=O)c2ccccc2S3)cc1F | inconclusive: 11.2 µM [inhibitor, partial curve, poor fit] | –
65 | O=C(Nc1cccnc1)/C(N=Nc1cccnc1)=C(\O)c1ccccc1 | inconclusive: 0.251 µM [inhibitor, full curve, poor fit] | –
66 | CCN(Cc1ccccc1)C(=O)Nc1ccc2c(c1)N(C)C(=O)c1ccccc1S2 | inconclusive: 11.2 µM [inhibitor, single point] | –
67 | COc1cc(NC(=O)c2cc(OC)c(OC)c(OC)c2)ccc1NC(=O)c1cccs1 | – | inactive: -27%
68 | O=C1c2ccccc2C(=O)c2cc(N3CCCCC3)ccc21 | active: 3.16 µM | –

— PubChem BioAssay AID540256 (National Center for Advancing Translational Sciences (NCATS), 2011)
